Reference: paper PMC4222359
Results are given in words; binding and its absence hold for the method and conditions named. Binding seen in cells or lysates may run through a third protein. Some binding calls cover weakened binding; strength is not graded here. For some of these results: Tags and fused reporters may be left off the sequences shown.

By UniProt entry, the sequences of proteins in these tests, tags left out.
UniProt P54098: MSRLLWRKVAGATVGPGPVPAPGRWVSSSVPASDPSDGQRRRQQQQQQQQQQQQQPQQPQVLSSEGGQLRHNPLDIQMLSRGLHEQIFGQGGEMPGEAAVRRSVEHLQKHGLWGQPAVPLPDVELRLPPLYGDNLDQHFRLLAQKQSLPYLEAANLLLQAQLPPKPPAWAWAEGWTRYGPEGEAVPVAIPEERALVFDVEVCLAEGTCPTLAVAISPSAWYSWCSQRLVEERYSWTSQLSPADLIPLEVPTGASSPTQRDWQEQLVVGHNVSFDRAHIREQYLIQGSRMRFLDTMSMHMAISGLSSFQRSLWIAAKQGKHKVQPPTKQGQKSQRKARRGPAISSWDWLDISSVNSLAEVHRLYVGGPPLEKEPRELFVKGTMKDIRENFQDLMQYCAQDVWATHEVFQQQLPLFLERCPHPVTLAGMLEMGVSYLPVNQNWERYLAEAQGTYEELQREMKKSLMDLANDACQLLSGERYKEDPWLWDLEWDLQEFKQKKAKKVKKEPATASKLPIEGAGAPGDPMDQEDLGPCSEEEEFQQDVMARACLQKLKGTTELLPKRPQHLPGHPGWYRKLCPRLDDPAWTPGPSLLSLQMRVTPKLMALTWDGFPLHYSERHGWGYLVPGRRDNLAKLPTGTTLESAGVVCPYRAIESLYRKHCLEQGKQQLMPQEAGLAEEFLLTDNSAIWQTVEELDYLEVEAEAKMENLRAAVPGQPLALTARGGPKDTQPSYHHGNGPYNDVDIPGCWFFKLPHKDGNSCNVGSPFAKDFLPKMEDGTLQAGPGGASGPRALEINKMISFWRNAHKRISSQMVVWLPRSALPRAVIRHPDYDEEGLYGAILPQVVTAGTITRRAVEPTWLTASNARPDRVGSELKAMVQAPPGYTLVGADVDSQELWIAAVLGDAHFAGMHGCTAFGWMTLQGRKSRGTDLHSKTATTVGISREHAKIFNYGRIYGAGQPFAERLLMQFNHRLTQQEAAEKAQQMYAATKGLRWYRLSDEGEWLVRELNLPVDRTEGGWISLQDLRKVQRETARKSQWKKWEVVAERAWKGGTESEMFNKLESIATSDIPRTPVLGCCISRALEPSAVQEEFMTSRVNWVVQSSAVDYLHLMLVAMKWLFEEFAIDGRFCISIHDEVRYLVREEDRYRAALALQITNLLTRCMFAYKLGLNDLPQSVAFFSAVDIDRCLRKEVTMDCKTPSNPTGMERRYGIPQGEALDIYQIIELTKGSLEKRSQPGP

T1: MGME1.Flag.Strep2 (human) (UniProt Q9BQP7)
T1 sequence: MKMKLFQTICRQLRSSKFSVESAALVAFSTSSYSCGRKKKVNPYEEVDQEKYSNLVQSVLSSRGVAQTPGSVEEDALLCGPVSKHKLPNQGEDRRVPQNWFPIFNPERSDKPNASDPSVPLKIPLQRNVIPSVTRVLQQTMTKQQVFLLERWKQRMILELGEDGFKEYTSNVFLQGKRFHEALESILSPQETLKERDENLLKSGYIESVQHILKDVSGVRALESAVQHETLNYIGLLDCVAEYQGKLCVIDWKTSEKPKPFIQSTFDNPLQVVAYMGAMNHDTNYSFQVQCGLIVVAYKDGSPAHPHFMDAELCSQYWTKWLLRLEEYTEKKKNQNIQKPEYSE

T2: MGME1.Flag.Strep2 (human), Q9BQP7
T2 chain: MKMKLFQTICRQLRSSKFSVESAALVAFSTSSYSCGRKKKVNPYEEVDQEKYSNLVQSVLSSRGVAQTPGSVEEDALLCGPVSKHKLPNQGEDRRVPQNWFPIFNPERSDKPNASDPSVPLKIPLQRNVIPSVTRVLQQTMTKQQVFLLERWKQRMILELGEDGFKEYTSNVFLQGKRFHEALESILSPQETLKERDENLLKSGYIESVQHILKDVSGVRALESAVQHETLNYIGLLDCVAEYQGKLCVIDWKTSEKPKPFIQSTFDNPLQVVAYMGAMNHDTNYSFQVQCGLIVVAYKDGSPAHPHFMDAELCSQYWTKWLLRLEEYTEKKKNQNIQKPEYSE


Tests used:
[1] = molecular target: T1, MGME1.Flag.Strep2 (human); experiment: pull-down; MGME1.Flag.Strep2 as bait from mitochondrial lysates of induced HEK293T cells, streptavidin column; input and elution analysed by western blot; parental HEK293T as control
[2] = molecular target: PolgA.Flag.Strep2 (human) (UniProt P54098); experiment: pull-down; reciprocal: PolgA.Flag.Strep2 as bait from mitochondrial lysates of HEK293T cells, purified on a streptavidin column; input and elution analysed by western blot; parental HEK293T as control (legend calls it co-IP)
[3] = molecular target: T2, MGME1.Flag.Strep2 (human), Q9BQP7; experiment: pull-down; MGME1.Flag.Strep2 as bait from mitochondrial lysates of induced HEK293T cells, streptavidin column; input and elution analysed by western blot; parental HEK293T as control; conditions: remark: other sources report otherwise

| Molecule | binding [1] | other results |
| --- | --- | --- |
| PolgA (from UniProt P54098 1-1239) (enzyme) | binds |  |
| MGME1 (enzyme, UniProt Q9BQP7 1-344) MKMKLFQTICRQLRSSKFSVESAALVAFSTSSYSCGRKKKVNPYEEVDQEKYSNLVQSVLSSRGVAQTPGSVEEDALLCGPVSKHKLPNQGEDRRVPQNWFPIFNPERSDKPNASDPSVPLKIPLQRNVIPSVTRVLQQTMTKQQVFLLERWKQRMILELGEDGFKEYTSNVFLQGKRFHEALESILSPQETLKERDENLLKSGYIESVQHILKDVSGVRALESAVQHETLNYIGLLDCVAEYQGKLCVIDWKTSEKPKPFIQSTFDNPLQVVAYMGAMNHDTNYSFQVQCGLIVVAYKDGSPAHPHFMDAELCSQYWTKWLLRLEEYTEKKKNQNIQKPEYSE |  | binding [2]: binds |
| TFAM, Q00059 43-246 (protein) SSVLASCPKKPVSSYLRFSKEQLPIFKAQNPDAKTTELIRRIAQRWRELPDSKKKIYQDAYRAEWQVYKEEISRFKEQLTPSQIMSLEKEIMDKHLKRKAMTKKKELTLLGKPKRPRSAYNVYVAERFQEAKGDSPQEKLKTVKENWKNLSDSEKELYIQHAKEDETRYHNEMKSWEEQMIEVGRKDLLRRTIKKQRKYGAEEC |  | binding [3]: no binding |
| mtSSB (protein, UniProt Q04837 17-148) ESETTTSLVLERSLNRVHLLGRVGQDPVLRQVEGKNPVTIFSLATNEMWRSGDSEVYQLGDVSQKTTWHRISVFRPGLRDVAYQYVKKGSRIYLEGKIDYGEYMDKNNVRRQATTIIADNIIFLSDQTKEKE | no binding |  |
